Our source for the binding values is publication doi:10.1101/2020.08.03.235200.

The target of assay [1] is MRAP2 Δ38-44 with C-terminal LgBiT or C-terminal SmBiT (UniProt Q96G30). Description: split reporter.
The target of assay [2] is MRAP2 lacking the polybasic motif (MRAP2 Δ38-44), N-terminally FLAG- or HA-tagged (UniProt Q96G30). The assay is described as follows: co-IP.
Assay [3] shares this target. Description: co-IP. This is another data set of the same source.
The target of assay [4] is T1, MRAP2 wild type with C-terminal LgBiT or C-terminal SmBiT, Q96G30.
T1 chain: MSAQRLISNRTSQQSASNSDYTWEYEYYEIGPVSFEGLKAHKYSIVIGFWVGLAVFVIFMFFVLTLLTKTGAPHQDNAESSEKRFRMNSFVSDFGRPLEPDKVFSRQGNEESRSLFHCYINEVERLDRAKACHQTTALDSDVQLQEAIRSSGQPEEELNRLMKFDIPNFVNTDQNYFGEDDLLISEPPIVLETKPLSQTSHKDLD
Description: split reporter. The conditions noted are these: remark: other sources report otherwise.

Assay [5] addresses MRAP2 G48L+G52L with C-terminal LgBiT or C-terminal SmBiT (UniProt Q96G30). Description: split reporter.
Assay [6] deals with MRAP2 G48L+G52L, N-terminally FLAG- or HA-tagged (UniProt Q96G30). The assay is described as follows: co-IP.

Read-outs that look alike come from different tables or passages of the source. These are yes or no findings as the source states them, for the method shown. In cells and extracts the contact can be indirect. Some binding calls cover weakened binding; strength is not graded here. For part of these data: Tags and fused reporters may be left off the sequences shown.

B1: MRAP2 Δ38-44 with C-terminal LgBiT or C-terminal SmBiT (protein, UniProt Q96G30)
chain: MSAQRLISNRTSQQSASNSDYTWEYEYYEIGPVSFEGIVIGFWVGLAVFVIFMFFVLTLLTKTGAPHQDNAESSEKRFRMNSFVSDFGRPLEPDKVFSRQGNEESRSLFHCYINEVERLDRAKACHQTTALDSDVQLQEAIRSSGQPEEELNRLMKFDIPNFVNTDQNYFGEDDLLISEPPIVLETKPLSQTSHKDLD
With B1, in assay [1], the binding entry was “binds”.

B2: MRAP2 lacking the polybasic motif (MRAP2 Δ38-44), N-terminally FLAG- or HA-tagged (protein, UniProt Q96G30)
chain: MSAQRLISNRTSQQSASNSDYTWEYEYYEIGPVSFEGIVIGFWVGLAVFVIFMFFVLTLLTKTGAPHQDNAESSEKRFRMNSFVSDFGRPLEPDKVFSRQGNEESRSLFHCYINEVERLDRAKACHQTTALDSDVQLQEAIRSSGQPEEELNRLMKFDIPNFVNTDQNYFGEDDLLISEPPIVLETKPLSQTSHKDLD
modifications: N-terminal asparagine residue in both glycosylated and unglycosylated forms
On to B2, for which the binding entry in assay [2] and in assay [3] was “binds” throughout.

B3: MRAP2 wild type with C-terminal LgBiT or C-terminal SmBiT, Q96G30 1-205 (protein)
chain: MSAQRLISNRTSQQSASNSDYTWEYEYYEIGPVSFEGLKAHKYSIVIGFWVGLAVFVIFMFFVLTLLTKTGAPHQDNAESSEKRFRMNSFVSDFGRPLEPDKVFSRQGNEESRSLFHCYINEVERLDRAKACHQTTALDSDVQLQEAIRSSGQPEEELNRLMKFDIPNFVNTDQNYFGEDDLLISEPPIVLETKPLSQTSHKDLD
In the case of B3, in assay [4], the binding result is given as “binds”.

B4: MRAP2 G48L+G52L with C-terminal LgBiT or C-terminal SmBiT (protein, UniProt Q96G30 1-205)
chain: MSAQRLISNRTSQQSASNSDYTWEYEYYEIGPVSFEGLKAHKYSIVILFWVLLAVFVIFMFFVLTLLTKTGAPHQDNAESSEKRFRMNSFVSDFGRPLEPDKVFSRQGNEESRSLFHCYINEVERLDRAKACHQTTALDSDVQLQEAIRSSGQPEEELNRLMKFDIPNFVNTDQNYFGEDDLLISEPPIVLETKPLSQTSHKDLD
Consider B4, for which, in assay [5], the binding entry was “binds”.

B5: MRAP2 G48L+G52L, N-terminally FLAG- or HA-tagged (protein, UniProt Q96G30 1-205)
chain: MSAQRLISNRTSQQSASNSDYTWEYEYYEIGPVSFEGLKAHKYSIVILFWVLLAVFVIFMFFVLTLLTKTGAPHQDNAESSEKRFRMNSFVSDFGRPLEPDKVFSRQGNEESRSLFHCYINEVERLDRAKACHQTTALDSDVQLQEAIRSSGQPEEELNRLMKFDIPNFVNTDQNYFGEDDLLISEPPIVLETKPLSQTSHKDLD
In the case of B5, the binding entry in assay [6] is on record as “binds”.
